± gives the standard deviation of the averaged measurements. Most values lie at the level of the controls, where differences are scatter.
Key:
Experiment in all cases: level (log10 ratio to DMSO vehicle control); higher = higher biomarker level / cell amount than vehicle control
[1] = compound: FC(F)(F)C(F)(F)C(F)(F)C(F)(F)C(F)(F)C(F)(F)C(F)(F)C(F)(F)CCS [2-(Perfluorooctyl)ethanthiol]; settings: in DMSO
Description: (§1)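 BioMAP Diversity Plus panel of 12 human primary cell co-culture systems (3C, 4H, LPS, SAg, BT, BF4T, BE3C, CASM3C, HDF3CGF, KF3CT, MyoF, Mphg). Compounds were added 1 h before stimulation and left for 24 h (MyoF 48 h; BT 72 h for soluble read-outs or 6 d for IgG). Biomarkers were read by ELISA, cytotoxicity by SRB, PBMC viability and proliferation by Alamar Blue. Each well value was divided by the mean of 8 DMSO control wells on the same plate and log10 transformed; duplicate blinded samples were tested at 4 concentrations.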

[2] = compound: O=C(O)C(F)(F)C(F)(F)C(F)(F)C(F)(F)C(F)(F)C(F)(F)C(F)(F)F [Ammonium perfluorooctanoate]; settings: 2200 nM; in DMSO
Description: as §1

[3] = compound: O=C(O)C(F)(F)OC(F)(F)C(F)(F)OC(F)(F)F [Perfluoro-3,6-dioxaheptanoic acid]; settings: 2200 nM; in DMSO
Description: as §1

[4] = compound: C=CC(=O)OCC(F)(F)C(F)(F)C(F)(F)C(F)(F)C(F)(F)C(F)(F)C(F)(F)C(F)F [1H,1H,9H-Perfluorononyl acrylate]; settings: 2200 nM; in DMSO
Description: as §1

[5] = compound: OCC(F)(F)C(F)(F)C(F)(F)C(F)(F)C(F)(F)C(F)(F)C(F)(F)C(F)(F)CO [1H,1H,10H,10H-Perfluorodecane-1,10-diol]; settings: 2200 nM; in DMSO
Description: as §1

Perfluorodecanoic acid = compound: O=C(O)C(F)(F)C(F)(F)C(F)(F)C(F)(F)C(F)(F)C(F)(F)C(F)(F)C(F)(F)C(F)(F)F [Perfluorodecanoic acid]; settings: in DMSO
Description: as §1

[6] = compound: O=C(O)C(F)(F)OC(F)(F)C(F)(F)OC(F)(F)C(F)(F)OC(F)(F)C(F)(F)C(F)(F)C(F)(F)F [Perfluoro-3,6,9-trioxatridecanoic acid]; settings: 2200 nM; in DMSO
Description: as §1

[7] = compound: OCC(F)(F)OC(F)(F)C(F)(F)OC(F)(F)C(F)(F)OC(F)(F)CO [1H,1H,11H,11H-Perfluorotetraethylene glycol]; settings: 2200 nM; in DMSO
Description: as §1

Perfluorononanoic acid = compound: O=C(O)C(F)(F)C(F)(F)C(F)(F)C(F)(F)C(F)(F)C(F)(F)C(F)(F)C(F)(F)F [Perfluorononanoic acid]; settings: 2200 nM; in DMSO
Description: as §1

Perfluorooctanoic acid = compound: O=C(O)C(F)(F)C(F)(F)C(F)(F)C(F)(F)C(F)(F)C(F)(F)C(F)(F)F [Perfluorooctanoic acid]; settings: 2200 nM; in DMSO
Description: as §1

[8] = compound: O=C(O)CCC(F)(C(F)(F)F)C(F)(F)F [4,4-bis(Trifluoromethyl)-4-fluoropropanoic acid]; settings: 2200 nM; in DMSO
Description: as §1

[9] = compound: CCOC(=O)CC(=O)C(F)(F)C(F)(F)F [Ethyl pentafluoropropionyl acetate]; settings: 2200 nM; in DMSO
Description: as §1

[10] = compound: O=C(CC(=O)C(F)(F)C(F)(F)C(F)(F)F)c1cccs1 [(Perfluorobutyryl)-2-thenoylmethane]; settings: 2200 nM; in DMSO
Description: as §1

Perfluorooctanamidine = compound: N=C(N)C(F)(F)C(F)(F)C(F)(F)C(F)(F)C(F)(F)C(F)(F)C(F)(F)F [Perfluorooctanamidine]; settings: in DMSO
Description: as §1

Row | Test System | level (log10) ([1]; 740 nM) | level (log10) ([1]; 2200 nM) | level (log10) [2] | level (log10) [3] | level (log10) [4] | level (log10) [5] | level (log10) (Perfluorodecanoic acid; 2200 nM) | level (log10) (Perfluorodecanoic acid; 6700 nM) | level (log10) (Perfluorodecanoic acid; 20000 nM) | level (log10) [6] | level (log10) [7] | level (log10) (Perfluorononanoic acid) | level (log10) (Perfluorooctanoic acid) | level (log10) [8] | level (log10) [9] | level (log10) [10] | level (log10) (Perfluorooctanamidine; 2200 nM) | level (log10) (Perfluorooctanamidine; 6700 nM) | level (log10) (Perfluorooctanamidine; 20000 nM) | level (log10) (Perfluorooctanamidine; 60000 nM)
1 | 3C:CD62E/E-Selectin | -0.0065 ± 0.0092 | -0.0295 ± 0.013 | 0.013 ± 0.011 | 0 ± 0.03 | 0.015 ± 0.011 | -0.0105 ± 0.0035 | 0.0025 ± 0.00071 | -0.004 ± 0.0085 | 0.0025 ± 0.019 | -0.008 ± 0.016 | -0.0035 ± 0.028 | -0.002 ± 0.02 | 0.0045 ± 0.026 | -0.0135 ± 0.036 | -0.011 ± 0.016 | 0 ± 0.035 | -0.006 ± 0.024 | -0.0045 ± 0.023 | -0.005 ± 0.027 | -0.039
2 | lMphg:M-CSF | 0.014 ± 0.016 | -0.0035 ± 0.0021 | 0.0215 ± 0.019 | -0.0355 ± 0.026 | -0.0365 ± 0.0092 | 0.01 ± 0.062 | -0.014 ± 0.03 | 0.019 ± 0.021 | 0.0105 ± 0.037 | 0.013 ± 0.035 | -0.006 ± 0.024 | -0.0415 ± 0.011 | -0.008 ± 0.0085 | -0.0125 ± 0.039 | 0.0045 ± 0.028 | 0.0185 ± 0.018 | -0.005 ± 0.045 | -0.0155 ± 0.016 | -0.0015 ± 0.0021 | -0.001
3 | LPS:CD106/VCAM-1 | -0.0035 ± 0.012 | -0.0015 ± 0.0064 | -0.0065 ± 0.015 | 0.011 ± 0.024 | -0.0115 ± 0.005 | 0.0005 ± 0.013 | -0.0055 ± 0.0092 | 0.0015 ± 0.0035 | -0.001 ± 0.0014 | 0.0235 ± 0.0064 | 0.0065 ± 0.026 | -0.005 ± 0.028 | 0.003 ± 0.021 | 0.001 ± 0.018 | 0.0075 ± 0.005 | -0.0105 ± 0.016 | -0.0145 ± 0.005 | -0.017 ± 0.014 | -0.0365 ± 0.026 | -0.091
4 | CASM3C:CD141/Thrombomodulin | -0.029 ± 0.069 | -0.0125 ± 0.087 | 0.024 ± 0.047 | -0.0155 ± 0.0035 | 0.0575 ± 0.016 | -0.0295 ± 0.0078 | -0.019 ± 0.03 | -0.015 ± 0.031 | -0.0125 ± 0.029 | -0.024 ± 0.045 | -0.051 ± 0.02 | 0.0035 ± 0.052 | 0.002 ± 0.0042 | -0.0155 ± 0.11 | -0.051 ± 0.024 | 0.0235 ± 0.066 | 0.017 ± 0.044 | -0.008 ± 0.016 | -0.0205 ± 0.005 | 0.043
5 | SAg:SRB | 0.003 ± 0.023 | 0.0065 ± 0.005 | -0.0045 ± 0.013 | -0.0205 ± 0.011 | -0.0025 ± 0.0021 | 0.004 ± 0.024 | 0.0095 ± 0.0021 | -0.0035 ± 0.012 | -0.008 ± 0.013 | 0.0045 ± 0.0078 | 0.0065 ± 0.0021 | -0.004 ± 0.0099 | -0.0145 ± 0.0078 | 0.003 ± 0.011 | 0.004 ± 0.0085 | -0.004 ± 0.0057 | -0.015 ± 0.014 | -0.0025 ± 0.0078 | 0.0025 ± 0.018 | -0.084
6 | KF3CT:SRB | 0.0025 ± 0.0092 | 0.0005 ± 0.0078 | 0.0015 ± 0.0064 | 0.005 ± 0.0057 | 0.009 ± 0.0099 | 0.002 ± 0.016 | 0.0105 ± 0.011 | -0.0325 ± 0.005 | -0.036 ± 0.0085 | -0.0025 ± 0.016 | 0.007 ± 0.016 | 0.0025 ± 0.0064 | 0.0075 ± 0.016 | 0.004 ± 0.0014 | 0.006 ± 0.0057 | 0.001 ± 0.0042 | 0.0055 ± 0.019 | -0.001 ± 0.0014 | -0.004 ± 0.0014 | 0.027
7 | BT:sIL-17F | -0.211 ± 0.021 | -0.07 ± 0.14 | 0.061 ± 0.062 | 0.027 ± 0.059 | -0.109 ± 0.12 | 0.0015 ± 0.039 | -0.018 ± 0.088 | 0.019 ± 0.016 | 0.0345 ± 0.13 | 0.0095 ± 0.018 | -0.012 ± 0.04 | 0.027 ± 0.072 | 0.124 ± 0.13 | 0.019 ± 0.065 | 0.0095 ± 0.013 | -0.081 ± 0.048 | -0.0245 ± 0.022 | -0.0225 ± 0.071 | -0.209 ± 0.023 | -0.112
8 | BT:Secreted IgG | 0.019 ± 0.0099 | 0.0235 ± 0.012 | 0.0385 ± 0.0078 | -0.001 ± 0.047 | 0.017 ± 0.042 | 0.0005 ± 0.093 | -0.012 ± 0.041 | -0.014 ± 0.033 | -0.018 ± 0.02 | -0.0185 ± 0.028 | 0.03 ± 0.04 | 0.0305 ± 0.016 | 0.0265 ± 0.0092 | -0.0335 ± 0.054 | 0.0155 ± 0.016 | -0.022 ± 0.024 | 0.0005 ± 0.012 | 0.0115 ± 0.039 | -0.042 ± 0.0042 | -0.034
9 | BF4T:MMP-3 | -0.046 ± 0.03 | -0.029 ± 0.054 | 0.015 ± 0.0057 | -0.002 ± 0.047 | -0.004 ± 0.041 | 0.0135 ± 0.03 | 0.005 ± 0.023 | 0.0215 ± 0.023 | -0.14 ± 0.075 | 0.0285 ± 0.0078 | 0.026 ± 0.017 | 0.007 ± 0.035 | 0.0075 ± 0.033 | 0.072 ± 0.027 | 0.007 ± 0.069 | -0.044 ± 0.0057 | 0.022 ± 0.018 | 0.0035 ± 0.032 | 0.003 ± 0.055 | 0.148
10 | KF3CT:CXCL9/MIG | 0.017 ± 0.014 | 0.0075 ± 0.00071 | 0.003 ± 0.0028 | -0.017 ± 0.017 | -0.0075 ± 0.005 | -0.006 ± 0.0071 | 0.0105 ± 0.0064 | 0.0065 ± 0.0078 | -0.0185 ± 0.0035 | 0.011 ± 0.031 | 0.004 ± 0.021 | -0.0275 ± 0.011 | 0.0055 ± 0.005 | -0.019 ± 0.016 | -0.002 ± 0.0071 | 0.012 ± 0.011 | 0.0085 ± 0.0064 | -0.0015 ± 0.011 | -0.0005 ± 0.0092 | 0.015
11 | BE3C:CXCL9/MIG | 0.0065 ± 0.033 | -0.0005 ± 0.028 | 0.004 ± 0.018 | -0.0115 ± 0.0078 | 0.005 ± 0.0042 | -0.0065 ± 0.013 | 0 ± 0.0028 | -0.003 ± 0.0042 | -0.715 ± 0.9 | 0.0155 ± 0.019 | -0.008 ± 0.0099 | -0.011 ± 0.0085 | 0 ± 0.014 | -0.006 ± 0.0071 | -0.008 ± 0.018 | 0.001 ± 0.016 | 0.022 ± 0.0042 | 0.0135 ± 0.018 | 0.0085 ± 0.0092 | 0.037
12 | KF3CT:CD54/ICAM-1 | -0.001 ± 0.0057 | 0.003 ± 0.023 | -0.0105 ± 0.0078 | -0.004 ± 0.0071 | 0.019 ± 0.011 | -0.0215 ± 0.0078 | -0.011 ± 0.023 | 0.0095 ± 0.013 | -0.003 ± 0.0028 | 0.007 | -0.011 ± 0.025 | -0.0165 ± 0.0021 | 0.005 ± 0.013 | -0.002 ± 0.0099 | -0.0165 ± 0.032 | -0.026 ± 0.0071 | 0.0045 ± 0.015 | 0.0055 ± 0.033 | 0.0175 ± 0.022 | 0.064

Look-ups from the entries so far.
Value of LPS:CD106/VCAM-1 under level (log10) [9]: 0.0075 ± 0.005
Value of 3C:CD62E/E-Selectin under level (log10) (Perfluorooctanamidine; 6700 nM): -0.0045 ± 0.023

Source: the supplement of paper PMC10331698
